In paper PMC8115037, “Paracoccus denitrificans: a genetically tractable model system for studying respiratory complex I” (Scientific Reports, 2021):
Changes are numbered by the printed parent chain. Numbers in names are those of the source. No constants are given. Whether binding was seen depends on the method and setting. Some results given as binding are weak or reduced against the parent protein; the word gives no strength. Sequences can lack the tags named with a protein.

T1: Nqo5 (NDUFS3) subunit of P. denitrificans complex I with a C-terminal Ala6-His6 tag (P. denitrificans) (UniProt P29917)
T1 sequence: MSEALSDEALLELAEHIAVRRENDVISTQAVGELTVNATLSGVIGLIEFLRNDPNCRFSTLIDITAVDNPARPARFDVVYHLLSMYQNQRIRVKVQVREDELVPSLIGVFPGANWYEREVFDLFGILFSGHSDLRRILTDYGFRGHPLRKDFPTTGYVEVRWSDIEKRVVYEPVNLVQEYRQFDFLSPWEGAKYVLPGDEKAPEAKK

B1: Nqo13 (ND4) subunit of P. denitrificans complex I, K232Q variant (protein, UniProt P29925 1-513)
chain: MTNLLSIITFLPIVAAIIMALFLRGQDEAAARNAKWLALLTTTATFVISLFVLFRFDPANTGFQFVEDHAWIMGVCYKMGVDGISVLFVLLTTFMMPLTILSTWQVQDKVKEYMIAFLVLEGLMIGVFTALDLVLFYLFFEAGLIPMFLIIGIWGGKDRIYASFKFFLYTFLGSVLMLVAMIAMYRMAGTTDIPTLLTFDFPSENFRLLGMTVVGGMQMLLFLAFFASFAVQMPMWPVHTWLPDAHVQAPTAGSVLLAAVLLKMGGYGFLRFSLPMFPVASGVAQPYVFWLSAIAIVYTSLVALAQSDMKKVIAYSSVAHMGYVTMGVFAANQIGVDGAIFQMLSHGFISGALFLCVGVIYDRMHTREIDAYGGLVNRMPAYAAVFMFFTMANVGLPGTSGFVGEFLTLMGVFRVDTWVALVATSGVILSAAYALWLYRRVTLGQLIKESLKSITDMTPRERWVFIPLIAMTLILGVYPRLVTDVTGPAVAALVQDYNQSQPAAPVATAQASH
B2: Nqo13 (ND4) subunit of P. denitrificans complex I, wild type (protein, UniProt P29925 1-513)
chain: B1 chain with Q232K

Molecular target: T1, Nqo5 (NDUFS3) subunit of P. denitrificans complex I with a C-terminal Ala6-His6 tag (P. denitrificans)
Assay: Ni-affinity purification and SEC with SDS-PAGE band pattern; complex I of wild type and of the K232Q^Nqo13 strain purified by the His6 tag on Nqo5, SEC elution profiles and SDS-PAGE band patterns compared

Binder | binding
B1 | binds
B2 | binds
